Results from paper PMC7911381.
Results are given in words; binding and its absence hold for the method and conditions named. Binding seen in cells or lysates may run through a third protein. Some binding calls cover weakened binding; strength is not graded here.

Chains of the proteins cited; added tags and fusions are not shown. Residues count along the entry.
UniProt Q07021, residues 50-282: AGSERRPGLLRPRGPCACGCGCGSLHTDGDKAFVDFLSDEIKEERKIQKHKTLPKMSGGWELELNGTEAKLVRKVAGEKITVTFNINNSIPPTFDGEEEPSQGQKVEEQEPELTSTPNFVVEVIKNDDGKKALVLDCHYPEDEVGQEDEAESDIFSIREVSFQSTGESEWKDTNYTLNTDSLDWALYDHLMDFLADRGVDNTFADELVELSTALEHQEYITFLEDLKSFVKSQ
UniProt P16794: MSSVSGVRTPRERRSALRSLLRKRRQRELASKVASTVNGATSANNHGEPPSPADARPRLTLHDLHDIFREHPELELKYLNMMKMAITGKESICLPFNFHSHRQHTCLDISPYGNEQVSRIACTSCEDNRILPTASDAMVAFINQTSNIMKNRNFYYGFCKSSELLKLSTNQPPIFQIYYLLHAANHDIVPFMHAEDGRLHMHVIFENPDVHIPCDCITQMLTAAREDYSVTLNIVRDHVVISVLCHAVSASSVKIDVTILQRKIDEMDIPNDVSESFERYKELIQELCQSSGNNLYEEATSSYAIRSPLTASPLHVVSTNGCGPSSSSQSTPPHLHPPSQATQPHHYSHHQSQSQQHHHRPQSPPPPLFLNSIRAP

How the values were obtained:
Assay in all cases: co-IP
p32(50-282)-Flag = p32(50-282)-Flag (UniProt Q07021)
emerin = target: T1, emerin (UniProt P50402)
T1 sequence: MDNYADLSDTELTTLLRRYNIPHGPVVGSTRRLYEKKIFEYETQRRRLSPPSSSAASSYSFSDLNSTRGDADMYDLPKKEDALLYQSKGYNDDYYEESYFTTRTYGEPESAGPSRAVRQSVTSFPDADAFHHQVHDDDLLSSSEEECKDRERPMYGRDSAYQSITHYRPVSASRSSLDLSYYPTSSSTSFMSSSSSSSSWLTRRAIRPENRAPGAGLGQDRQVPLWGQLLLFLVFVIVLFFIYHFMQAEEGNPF

[1] = target: HCMV pUL53-Flag (human cytomegalovirus (HCMV)) (UniProt P16794)
PKCα-Flag = PKCα-Flag (UniProt P17252)

Measured: binding

HCMV pUL50-HA (non-mutated parental protein) (from UniProt P16791 1-397)
binds: p32(50-282)-Flag | emerin | [1] | PKCα-Flag
